From publication PMC8844045
Construct, isoform or probe ends are uncertain for at least one entry. For some of these results: A negative result means that nothing was seen under these conditions. For some of these results: At least one verdict rests on a figure or table, not on a statement of the authors. For some of these results: A weaker result is weaker than the reference pair of the same experiment. For some of these results: Results from cells or extracts need not show a direct contact. For some of these results: Tags and fusion partners may be left off the protein sequences shown.

Amino acid sequences for entries named in this document (tags omitted). A change or cut given only in a name is not applied to a line headed by its entry.
UniProt Q9NFU0: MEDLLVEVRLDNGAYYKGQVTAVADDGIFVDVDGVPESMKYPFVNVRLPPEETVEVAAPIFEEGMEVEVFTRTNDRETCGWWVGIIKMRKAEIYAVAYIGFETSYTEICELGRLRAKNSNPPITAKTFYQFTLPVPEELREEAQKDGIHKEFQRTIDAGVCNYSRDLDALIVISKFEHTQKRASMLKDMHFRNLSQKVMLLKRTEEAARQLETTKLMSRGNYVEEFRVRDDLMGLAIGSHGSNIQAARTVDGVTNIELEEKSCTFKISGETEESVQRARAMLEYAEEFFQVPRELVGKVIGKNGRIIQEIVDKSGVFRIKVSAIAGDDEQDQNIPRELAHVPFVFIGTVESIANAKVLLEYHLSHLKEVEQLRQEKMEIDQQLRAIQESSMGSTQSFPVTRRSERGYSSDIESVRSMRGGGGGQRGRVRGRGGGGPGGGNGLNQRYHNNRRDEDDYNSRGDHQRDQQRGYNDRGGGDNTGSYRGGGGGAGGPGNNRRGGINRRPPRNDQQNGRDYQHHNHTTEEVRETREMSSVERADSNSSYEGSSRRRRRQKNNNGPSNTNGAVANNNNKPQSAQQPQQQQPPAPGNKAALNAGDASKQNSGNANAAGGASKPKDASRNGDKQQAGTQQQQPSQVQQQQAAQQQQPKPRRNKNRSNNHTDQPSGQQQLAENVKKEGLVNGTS

Tests used:
[1] = molecular target: FMR1 (MBP fusion) (UniProt Q9NFU0); test: EMSA; conditions: EMSA: 10 mM HEPES pH 7.4, 50 mM KCl, 1 mM DTT (printed DDT), 1 mM EDTA, 0.05% Triton X-100, 5% glycerol, 10 ng/ul salmon DNA, 25 C, then 0.2% glutaraldehyde, recombinant protein, letters put together from the description
[2] = molecular target: FMR1 (endogenous) (Drosophila (w1118 embryos)) (UniProt Q9NFU0); test: pull-down, immunoblot; conditions: pull-down: 10 mM Tris-HCl pH 7.5, 150 mM KCl, 1.5 mM MgCl2, 0.1% NP-40, 0.5 mM DTT, 4 C, protein in an extract, label: biotin-16-UTP, letters put together from the description
[3] = molecular target: T1, Ythdc (endogenous) (Drosophila (w1118 embryos)) (UniProt Q9VZQ1); test: pull-down, immunoblot; conditions: pull-down: 10 mM Tris-HCl pH 7.5, 150 mM KCl, 1.5 mM MgCl2, 0.1% NP-40, 0.5 mM DTT, 4 C, protein in an extract, label: biotin-16-UTP, letters put together from the description
T1 sequence (looked up, limits assumed): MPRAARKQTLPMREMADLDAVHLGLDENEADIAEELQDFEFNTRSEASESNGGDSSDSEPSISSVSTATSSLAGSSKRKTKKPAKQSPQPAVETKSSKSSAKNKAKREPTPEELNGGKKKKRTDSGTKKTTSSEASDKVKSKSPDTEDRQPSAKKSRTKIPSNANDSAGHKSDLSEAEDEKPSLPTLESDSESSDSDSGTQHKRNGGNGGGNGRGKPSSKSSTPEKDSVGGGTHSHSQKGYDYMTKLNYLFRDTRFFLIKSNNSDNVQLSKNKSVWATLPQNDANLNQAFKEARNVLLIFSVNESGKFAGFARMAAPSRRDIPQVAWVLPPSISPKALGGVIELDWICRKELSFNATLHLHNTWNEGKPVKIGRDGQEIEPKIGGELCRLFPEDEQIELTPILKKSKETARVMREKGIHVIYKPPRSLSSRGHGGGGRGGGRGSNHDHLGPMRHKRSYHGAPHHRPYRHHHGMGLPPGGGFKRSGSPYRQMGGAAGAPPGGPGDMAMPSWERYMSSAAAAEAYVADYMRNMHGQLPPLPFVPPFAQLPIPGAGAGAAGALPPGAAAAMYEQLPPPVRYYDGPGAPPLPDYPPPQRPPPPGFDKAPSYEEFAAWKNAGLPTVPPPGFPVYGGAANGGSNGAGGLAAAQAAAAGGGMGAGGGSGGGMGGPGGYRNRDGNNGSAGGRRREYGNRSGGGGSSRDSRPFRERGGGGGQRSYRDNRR

[4] = molecular target: T2, Ythdf (endogenous) (Drosophila (w1118 embryos)) (UniProt Q9VBZ5); test: pull-down, immunoblot; conditions: pull-down: 10 mM Tris-HCl pH 7.5, 150 mM KCl, 1.5 mM MgCl2, 0.1% NP-40, 0.5 mM DTT, 4 C, protein in an extract, label: biotin-16-UTP, letters put together from the description
T2 sequence (looked up, limits assumed): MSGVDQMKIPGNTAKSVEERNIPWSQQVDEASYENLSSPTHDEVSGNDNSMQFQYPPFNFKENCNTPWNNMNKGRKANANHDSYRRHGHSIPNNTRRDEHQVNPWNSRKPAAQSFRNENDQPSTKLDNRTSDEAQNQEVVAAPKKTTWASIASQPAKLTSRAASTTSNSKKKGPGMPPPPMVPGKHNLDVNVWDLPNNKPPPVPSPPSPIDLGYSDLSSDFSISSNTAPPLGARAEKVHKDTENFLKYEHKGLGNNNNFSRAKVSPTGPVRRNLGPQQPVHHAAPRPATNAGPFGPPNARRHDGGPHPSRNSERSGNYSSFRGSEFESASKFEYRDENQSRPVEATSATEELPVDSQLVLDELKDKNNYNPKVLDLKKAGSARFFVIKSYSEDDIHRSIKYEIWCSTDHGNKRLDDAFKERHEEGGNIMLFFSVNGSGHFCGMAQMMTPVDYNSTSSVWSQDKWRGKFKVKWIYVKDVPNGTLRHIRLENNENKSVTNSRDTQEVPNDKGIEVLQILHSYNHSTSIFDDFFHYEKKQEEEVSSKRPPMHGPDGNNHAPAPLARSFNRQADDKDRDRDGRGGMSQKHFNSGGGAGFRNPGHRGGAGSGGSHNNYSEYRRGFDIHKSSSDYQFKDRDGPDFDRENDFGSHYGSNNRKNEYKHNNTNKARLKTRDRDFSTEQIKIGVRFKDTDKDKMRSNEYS

[5] = molecular target: T3, hYthdf2 (human) (UniProt Q9Y5A9); test: EMSA; conditions: all A = m6A (m6ATP); EMSA: 10 mM HEPES pH 7.4, 50 mM KCl, 1 mM DTT (printed DDT), 1 mM EDTA, 0.05% Triton X-100, 5% glycerol, 10 ng/ul salmon DNA, 25 C, then 0.2% glutaraldehyde; recombinant protein; residues 300-579; label: biotin-16-UTP; letters put together from the description
T3 sequence (looked up): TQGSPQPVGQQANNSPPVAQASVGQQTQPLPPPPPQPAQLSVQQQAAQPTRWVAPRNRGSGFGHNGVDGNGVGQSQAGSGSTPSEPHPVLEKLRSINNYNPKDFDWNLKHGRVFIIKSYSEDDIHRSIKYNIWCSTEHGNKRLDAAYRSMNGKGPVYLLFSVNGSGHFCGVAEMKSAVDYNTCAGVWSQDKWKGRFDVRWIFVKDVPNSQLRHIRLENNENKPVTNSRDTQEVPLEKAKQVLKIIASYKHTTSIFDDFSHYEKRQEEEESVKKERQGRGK

[6] = all A = m6A (m6ATP), label: biotin-16-UTP

GGUAGACCAGACCAGACCAGACCAGACCAGACCAGACCAGACCAGACCGUACU [AGACC (9x), m6A]
binding result [1, 6]: binds more weakly

GGGGACUAGACUGAACUGGGACUAGACUGAACUGGGACUAGACUGAACUGUAC [mixed GGACU/AGACU/GAACU probe, unmodified]
binding result ([1]; label: biotin-16-UTP): binds more weakly | binding result [2]: binds more weakly | binding result [3]: no binding | binding result [4]: no binding

GGGGACUAGACUGAACUGGGACUAGACUGAACUGGGACUAGACUGAACUGUAC [mixed GGACU/AGACU/GAACU probe, m6A]
binding result [5]: binds | binding result ([2]; all A = m6A (m6ATP)): binds | binding result ([3]; all A = m6A (m6ATP)): binds | binding result ([4]; all A = m6A (m6ATP)): no binding

GGGAGACUAGACUAGACUGAGACUAGACUAGACUGAGACUAGACUAGACUGUAC [AGACU (9x), unmodified]
binding result ([1]; label: biotin-16-UTP): binds more weakly

GGUAGACAAGACAAGACAAGACAAGACAAGACAAGACAAGACAAGACAGUACU [AGACA (9x), m6A]
binding result [1, 6]: binds more weakly

GGGGAACUGAACUGAACUGGAACUGAACUGAACUGGAACUGAACUGAACUGUAC [GAACU (9x), m6A]
binding result [1, 6]: binds more weakly

GGGGCCUAGCCUGACCUGGGCCUAGCCUGACCUGGGCCUAGCCUGACCUGU [GACCU mutant RNA, unmodified]
binding result [1]: no binding

GGGGAACUGAACUGAACUGGAACUGAACUGAACUGGAACUGAACUGAACUGUAC [GAACU (9x), unmodified]
binding result ([1]; label: biotin-16-UTP): binds more weakly

GGGGGACUGGACUGGACUGGGACUGGACUGGACUGGGACUGGACUGGACUGUAC [GGACU (9x), unmodified]
binding result ([1]; label: biotin-16-UTP): binds more weakly

GGGAGCCUAGCCUAGCCUGAGCCUAGCCUAGCCUGAGCCUAGCCUAGCCUGUAC [AGCCU (9x), m6A]
binding result [1, 6]: binds more weakly

GGGAAACUAAACUAAACUGAAACUAAACUAAACUGAAACUAAACUAAACUGUAC [AAACU (9x), m6A]
binding result [1, 6]: binds more weakly

GGGAAACUAAACUAAACUGAAACUAAACUAAACUGAAACUAAACUAAACUGUAC [AAACU (9x), unmodified]
binding result ([1]; label: biotin-16-UTP): binds more weakly

GGGGGACUGGACUGGACUGGGACUGGACUGGACUGGGACUGGACUGGACUGUAC [GGACU (9x), m6A]
binding result [1, 6]: binds more weakly
